This test relates to RAW 264.7. Briefly: cell viability (MTT) relative to vehicle control; higher = more viable cells. To be noted: stimulus: HMGB1 5 ug/ml, 18 h.
Setting [1] is: compound concentration: 1 ug/ml.

Structures can show the parent of a compound that is named as a salt. ± gives the standard deviation of the averaged measurements. The list shows a part of the results. Many values rest on one well or one pass, so single values are uncertain.

The term cell viability denotes a read-out of living cells in per cent, often relative to untreated cells.

Turning to `CN(C)CCCC1(c2ccc(F)cc2)OCc2cc(C#N)ccc21` (configuration not stated) [Citalopram], the cell viability (compound concentration: 3 uM) turned out to be 91.3%.
The same measure, in the same setting: the result for `CN(C)CCCC1(c2ccc(F)cc2)OCc2cc(C#N)ccc21` (configuration not stated) [Citalopram Hydrobromide] reads 113%; that for `CN(C)CCCC1(c2ccc(F)cc2)OCc2cc(C#N)ccc21` (configuration not stated) [Citalopram hydrobromide], 103 ± 7.5%.
`CN(C)CCCC1(c2ccc(F)cc2)OCc2cc(C#N)ccc21` (configuration not stated): the cell viability (compound concentration: 3 uM) is 114%.
As for `N[C@H](Cc1ccc2ccccc2c1)C(=O)O` [3-(2-Naphthyl)-D-alanine], the cell viability under setting [1] stood at 103%.
Regarding `C[C@H](O)C(=O)C1=Nc2c(nc(N)[nH]c2=O)NC1` [Sepiapterin], the cell viability (compound concentration: 3 uM) was 114%.
For the compound `COc1cc(N)c(Cl)cc1C(=O)NC1CCN(CCCOc2ccc(F)cc2)CC1OC` (configuration not stated) [Cisapride], the cell viability (compound concentration: 3 uM) came to 111 ± 19%.
In the case of `CN(C)CCC(c1ccc(Cl)cc1)c1ccccn1` (configuration not stated) [Chlorpheniramine], the cell viability (compound concentration: 3 uM) was 96.4 ± 1.7%.
For `CN(C)CCC(c1ccc(Cl)cc1)c1ccccn1` (configuration not stated) [Chlorpheniramine maleate], the cell viability (compound concentration: 3 uM) worked out at 95.4%.
As to `OCC(O)CN1CCN(c2ccccc2)CC1` (configuration not stated), the cell viability (compound concentration: 3 uM) worked out at 104%.
The same measure, in the same setting: to `COc1ccccc1N1CCN(CCN2C(=O)CC3(CCCC3)CC2=O)CC1` [BMY 7378 dihydrochloride] belongs 85.3%; to `CN1Cc2sccc2C(c2ccc(O)c(O)c2)C1` (configuration not stated), 109%.
Consider `COc1ccc(-c2coc3cc(O)cc(O)c3c2=O)cc1` [Biochanin A], for which, under setting [1], the cell viability was determined as 84.8%.
With `COC1=CC(=O)C[C@@H](C)[C@]12Oc1c(Cl)c(OC)cc(OC)c1C2=O`, the cell viability (compound concentration: 3 uM) stood at 121 ± 15%.
`COC1=CC(=O)C[C@@H](C)[C@]12Oc1c(Cl)c(OC)cc(OC)c1C2=O` [Griseofulvin]: the cell viability by setting is: under setting [1], 83.2%; (compound concentration: 3 uM) 100%.
Turning to `CC(C)(C)c1cc(/C=C(\C#N)C(N)=S)cc(C(C)(C)C)c1O` [Tyrphostin AG 879], where the note is “compound concentration: 3 uM”, the cell viability amounted to 65.5%.
Take `CC(=O)O[C@H]1Cc2ccccc2N(C(N)=O)c2ccccc21`: the cell viability (compound concentration: 3 uM) came to 122%.
Same read-out and setting: the result for `CCOC(=O)c1ccc(O)cc1` reads 103%.
For the compound `COC(=O)Nc1nc2cc(C(=O)c3ccc(F)cc3)ccc2[nH]1`, under “compound concentration: 3 uM”, the cell viability turned out to be 76.7%.
Regarding `COC(=O)Nc1nc2cc(C(=O)c3ccc(F)cc3)ccc2[nH]1` [Flubendazole], under “compound concentration: 3 uM”, the cell viability stood at 86.2%.
Turning to `COC(=O)Nc1nc2cc(C(=O)c3ccc(F)cc3)ccc2[nH]1` [Flubendazol], for the setting “compound concentration: 3 uM”, the cell viability worked out at 84.2%.
As to `COc1ccc2cc1Oc1ccc(cc1)C[C@H]1c3c(cc4c(c3Oc3cc5c(cc3OC)CCN(C)[C@@H]5C2)OCO4)CCN1C`, the cell viability (compound concentration: 3 uM) is 107%.
Turning to `CC(C)(C)NC(=O)[C@@H]1CN(Cc2cccnc2)CCN1C[C@@H](O)C[C@@H](Cc1ccccc1)C(=O)N[C@H]1c2ccccc2C[C@H]1O`, the cell viability (compound concentration: 3 uM) is 95.5%.
In the case of `O=C(O)c1ccccc1Nc1cccc(OCc2ccc3ccccc3n2)c1`, the cell viability (compound concentration: 3 uM) is 116%.
On the same count and under the same terms, to `O=C(O[C@@H]1C[C@@H]2C[C@H]3C[C@H](C1)N2CC3=O)c1c[nH]c2ccccc12` [Dolasetron] belongs 114%; to `O=C(O[C@@H]1C[C@@H]2C[C@H]3C[C@H](C1)N2CC3=O)c1c[nH]c2ccccc12`, 100%.
